From paper PMC6533681 come the findings set out here.

By UniProt entry, the sequences of proteins in these tests, tags left out.
UniProt Q15910: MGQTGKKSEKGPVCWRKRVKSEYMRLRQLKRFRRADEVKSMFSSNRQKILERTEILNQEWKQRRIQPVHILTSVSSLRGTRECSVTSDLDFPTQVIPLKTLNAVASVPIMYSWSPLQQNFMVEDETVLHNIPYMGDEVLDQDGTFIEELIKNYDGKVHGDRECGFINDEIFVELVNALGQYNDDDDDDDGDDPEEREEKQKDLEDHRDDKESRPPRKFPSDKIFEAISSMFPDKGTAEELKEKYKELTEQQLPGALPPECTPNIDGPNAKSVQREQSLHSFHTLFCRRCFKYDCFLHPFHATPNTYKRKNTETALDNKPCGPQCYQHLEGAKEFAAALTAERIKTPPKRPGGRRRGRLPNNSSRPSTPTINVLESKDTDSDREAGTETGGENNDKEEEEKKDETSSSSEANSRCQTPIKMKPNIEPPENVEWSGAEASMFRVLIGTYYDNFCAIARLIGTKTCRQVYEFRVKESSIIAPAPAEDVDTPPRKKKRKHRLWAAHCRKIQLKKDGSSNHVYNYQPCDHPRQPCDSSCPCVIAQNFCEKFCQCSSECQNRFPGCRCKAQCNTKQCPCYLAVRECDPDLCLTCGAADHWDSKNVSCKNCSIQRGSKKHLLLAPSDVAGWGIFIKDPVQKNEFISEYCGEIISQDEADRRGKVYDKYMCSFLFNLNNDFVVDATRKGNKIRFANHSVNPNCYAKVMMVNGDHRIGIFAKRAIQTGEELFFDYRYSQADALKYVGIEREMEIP
UniProt P03372: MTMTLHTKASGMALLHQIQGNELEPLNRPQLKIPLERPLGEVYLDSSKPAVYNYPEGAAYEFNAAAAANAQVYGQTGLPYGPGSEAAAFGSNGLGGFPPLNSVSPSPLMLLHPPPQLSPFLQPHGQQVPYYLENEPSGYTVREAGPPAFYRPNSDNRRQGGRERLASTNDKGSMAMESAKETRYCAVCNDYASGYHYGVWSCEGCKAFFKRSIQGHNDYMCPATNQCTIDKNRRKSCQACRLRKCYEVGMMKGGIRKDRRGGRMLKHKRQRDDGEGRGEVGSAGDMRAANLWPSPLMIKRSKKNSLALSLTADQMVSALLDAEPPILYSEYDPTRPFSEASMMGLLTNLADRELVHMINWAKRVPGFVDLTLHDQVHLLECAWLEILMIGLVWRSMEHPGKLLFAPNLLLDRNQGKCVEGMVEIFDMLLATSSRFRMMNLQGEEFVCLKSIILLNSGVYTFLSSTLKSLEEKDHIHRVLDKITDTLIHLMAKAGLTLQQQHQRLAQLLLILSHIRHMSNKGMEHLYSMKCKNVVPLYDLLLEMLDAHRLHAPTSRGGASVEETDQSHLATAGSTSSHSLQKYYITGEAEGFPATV

No constants are given. Whether binding was seen depends on the method and setting. For some assays here: In cells and extracts the contact can be indirect. Some entries that bind do so weakly or less than the wild type.

Assay [1] concerns the target EZH2 (human (endogenous in LNCaP-abl and PC3)) (UniProt Q15910). In words: ChIP-re-ChIP; LNCaP-abl cells; eluate of the first ChIP diluted and precipitated with the second antibody; qPCR of ERE3 of the NOTCH1 promoter.
Assay [2] shares this target. Nature of the assay: co-IP; endogenous proteins in lysates of LNCaP-abl or PC3 cells treated with 10 nM E2 or DMSO (0.1% v/v); lysis buffer 50 mM Tris pH 8.0, 120 mM NaCl, 0.5% Nonidet P-40; anti-ERα and anti-EZH2 antibodies or control rabbit IgG overnight at 4 °C, protein A beads; washes with 900 mM NaCl; Western blot.

As to “Estrogen receptor alpha (from UniProt P03372 1-595)”, the binding result in assay [1] and in assay [2] was “binds” throughout.
